Data as given in PubChem BioAssay AID1259425 (University of Nebraska Medical Center, 2018)
Purpose: 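Compare each knockdown with KSR1 silencing using changes in marker transcripts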 (primary screen). Cells: HCT116 human colon cancer cells. Reagents: siRNA pool against human genes, 50 nM siRNA. Read-out: 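mRNA of six signature genes measured together by branched-DNA assay after 50 nM siRNA pool, blank removed, divided by geometric mean of two housekeeping genes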. Scale: BNIP3L mRNA: higher = more BNIP3L transcript after knockdown; NDRG1 mRNA: higher = more NDRG1 transcript after knockdown.
The deposit covers about 14,000 reagents; this is a part drawn at random. Further read-outs or replicates are left out here. Not stated in the record: the time to read-out.

no.	gene knocked down	BNIP3L mRNA, set 1	NDRG1 mRNA, set 1
1	SRCIN1 (SRC kinase signaling inhibitor 1)	0.116	0.343
2	PELP1 (proline, glutamate and leucine rich protein 1)	0.0852	0.0848
3	SERPINH1 (serpin family H member 1)	0.0918	0.296
4	EXOSC8 (exosome component 8)	0.272	0.14
5	GTF3C2 (general transcription factor IIIC subunit 2)	0.0519	0.142
6	CKM (creatine kinase, M-type)	0.0608	0.0908
7	HINT2 (histidine triad nucleotide binding protein 2)	0.28	0.224
8	GPALPP1 (GPALPP motifs containing 1)	0.0912	0.154
9	TPPP (tubulin polymerization promoting protein)	0.182	0.196
10	WRAP73 (WD repeat containing, antisense to TP73)	0.217	0.529
11	RBPJ	0.0761	0.496
12	BBS1 (Bardet-Biedl syndrome 1)	0.109	0.17
13	BCAS3 (BCAS3 microtubule associated cell migration factor)	0.0793	0.19
14	ARF4 (ARF GTPase 4)	0.0939	0.148
15	RRS1 (regulator of ribosome synthesis 1)	0.212	0.215
16	ARHGEF26 (Rho guanine nucleotide exchange factor 26)	0.051	0.131
17	QDPR (quinoid dihydropteridine reductase)	0.137	0.11
18	ARID1B (AT-rich interaction domain 1B)	0.169	0.283
19	ZNF275 (zinc finger protein 275)	0.0842	0.11
20	STAMBP (STAM binding protein)	0.131	0.271
21	VN1R3 (vomeronasal 1 receptor 3)	0.096	0.153
22	EBF2 (EBF transcription factor 2)	0.139	0.21
23	ANXA10 (annexin A10)	0.118	0.0924
24	C1orf50 (chromosome 1 open reading frame 50)	0.0988	0.146
25	WBP11 (WW domain binding protein 11)	0.191	0.387
26	AASS (aminoadipate-semialdehyde synthase)	0.187	0.0761
27	QPCT (glutaminyl-peptide cyclotransferase)	0.108	0.306
28	LILRB2 (leukocyte immunoglobulin like receptor B2)	0.0907	0.114
29	FBXW11 (F-box and WD repeat domain containing 11)	0.0609	0.0858
30	PDCL3 (phosducin like 3)	0.0679	0.465
31	SRBD1 (S1 RNA binding domain 1)	0.195	0.205
32	CSNK2A1 (casein kinase 2 alpha 1)	0.0718	0.229
33	FBXO31 (F-box protein 31)	0.144	0.34
34	ZNF471 (zinc finger protein 471)	0.0854	0.128
35	AOC2 (amine oxidase copper containing 2)	0.112	0.554
36	PTGIR (prostaglandin I2 receptor)	0.209	0.341
37	INTS1 (integrator complex subunit 1)	0.0689	0.801
38	MASTL (microtubule associated serine/threonine kinase like)	0.104	0.156
39	KIF16B (kinesin family member 16B)	0.0545	0.0728
40	SMS (spermine synthase)	0.0807	0.112
41	GHRHR (growth hormone releasing hormone receptor)	0.12	0.469
42	MIR600HG (MIR600 host gene)	0.278	0.626
43	SLC25A3	0.118	0.151
44	POU2AF1 (POU class 2 homeobox associating factor 1)	0.0916	0.522
45	PRRG4 (proline rich and Gla domain 4)	0.151	0.717
46	RETREG2 (reticulophagy regulator family member 2)	0.101	0.279
47	NKX6-1 (NK6 homeobox 1)	0.0548	0.116
48	PXN (paxillin)	0.0773	0.275
49	HSDL1 (hydroxysteroid dehydrogenase like 1)	0.15	0.291
50	PRDM10 (PR/SET domain 10)	0.166	0.222
